Data as given in paper PMC3955178, “Structural characterization of a hypothetical protein: a potential agent involved in trimethylamine metabolism in Catenulispora acidiphila” (Journal of Structural and Functional Genomics, 2014).
Results are given in words; binding and its absence hold for the method and conditions named. Some entries that bind do so weakly or less than the wild type.

Biological target: Caci_0382 from Catenulispora acidiphila DSM 44928 (Catenulispora acidiphila DSM 44928) (UniProt C7PVH9)
Assay: crystal structure; two crystal forms: apo-form (P61, 1.15 Å) and complex with trimethylamine (P21, 1.95 Å); two protomers per asymmetric unit, related by a twofold axis; both purified

B1: Caci_0382 from Catenulispora acidiphila DSM 44928 (natural protein)
chain: MTTPEIVTAWAAAWTGTNPNALGTLFAADGTYVDHAIGATMTGREQISGWKARTDAMIENVHVTITKAYRAGDHVTIEAVYGGHIKGAPTPFAVPMATLLRTRGEEITSDQDYYSLSSVLAQSGLPADWTPSDS
modifications: selenomethionine-labeled
notes: Caci_0382, hypothetical protein of the NTF2-like family, Catenulispora acidiphila DSM 44928; the gene encodes a 134 amino-acid protein of 14.3 kDa; Subcloned in the pMCSG57 vector, which adds a 6 His-Tag at the N-terminus; 131 Calpha atoms per subunit were aligned between the two crystal forms; also called hypothetical protein Caci_0382
  binding: binds
